# Results: the supplement of paper PMC8728848
# Some of the results follow.
# Legend:
# Test in all cases: glycan array binding signal (z-score within array); higher = stronger binding
# Conditions in all cases: glycan notation: IUPAC condensed, linker removed; mutation: R201A
# [1] = target: Gal(b1-4)GlcNAc(b1-3)Gal(b1-4)GlcNAc(b1-3)Gal(b1-4)GlcNAc
# How it was run: (§1)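 Arrays were curated from the Consortium for Functional Glycomics database, 3228 in total, and kept only where the protein sequence was available. Binding is expressed as a within-array Z-score. This score was averaged across arrays of the same protein sequence at different concentrations or buffers and across linkers, and negative values can be read as non-binding.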
# [2] = target: Gal(b1-4)GlcNAc(b1-3)Gal(b1-4)GlcNAc(b1-3)Gal(b1-4)GlcNAc(b1-2)Man(a1-3)[Gal(b1-4)GlcNAc(b1-3)Gal(b1-4)GlcNAc(b1-3)Gal(b1-4)GlcNAc(b1-2)Man(a1-6)]Man(b1-4)GlcNAc(b1-4)GlcNAc
# How it was run: as §1
# [3] = target: Gal(b1-4)GlcNAc(b1-3)Gal(b1-4)GlcNAc(b1-3)Gal(b1-4)GlcNAc(b1-2)Man(a1-3)[Gal(b1-4)GlcNAc(b1-3)Gal(b1-4)GlcNAc(b1-3)Gal(b1-4)GlcNAc(b1-2)Man(a1-6)]Man(b1-4)GlcNAc(b1-4)[Fuc(a1-6)]GlcNAc
# How it was run: as §1
# [4] = target: Gal(b1-4)GlcNAc(b1-3)Gal(b1-4)GlcNAc(b1-3)Gal(b1-4)GlcNAc(b1-2)[Gal(b1-4)GlcNAc(b1-3)Gal(b1-4)GlcNAc(b1-3)Gal(b1-4)GlcNAc(b1-6)]Man(a1-6)[Gal(b1-4)GlcNAc(b1-3)Gal(b1-4)GlcNAc(b1-3)Gal(b1-4)GlcNAc(b1-2)Man(a1-3)]Man(b1-4)GlcNAc(b1-4)[Fuc(a1-6)]GlcNAc
# How it was run: as §1
# [5] = target: Gal(b1-4)GlcNAc(b1-3)Gal(b1-4)GlcNAc(b1-3)Gal(b1-4)GlcNAc(b1-3)Gal(b1-4)GlcNAc(b1-2)Man(a1-3)[Gal(b1-4)GlcNAc(b1-3)Gal(b1-4)GlcNAc(b1-3)Gal(b1-4)GlcNAc(b1-3)Gal(b1-4)GlcNAc(b1-2)Man(a1-6)]Man(b1-4)GlcNAc(b1-4)GlcNAc
# How it was run: as §1
# [6] = target: Gal(b1-4)GlcNAc(b1-3)Gal(b1-4)GlcNAc(b1-3)Gal(b1-4)GlcNAc(b1-3)Gal(b1-4)GlcNAc(b1-2)Man(a1-3)[Gal(b1-4)GlcNAc(b1-3)Gal(b1-4)GlcNAc(b1-3)Gal(b1-4)GlcNAc(b1-3)Gal(b1-4)GlcNAc(b1-2)Man(a1-6)]Man(b1-4)GlcNAc(b1-4)[Fuc(a1-6)]GlcNAc
# How it was run: as §1
# [7] = target: Gal(b1-4)GlcNAc(b1-3)Gal(b1-4)GlcNAc(b1-3)Gal(b1-4)GlcNAc(b1-3)Gal(b1-4)GlcNAc(b1-2)[Gal(b1-4)GlcNAc(b1-3)Gal(b1-4)GlcNAc(b1-3)Gal(b1-4)GlcNAc(b1-3)Gal(b1-4)GlcNAc(b1-6)]Man(a1-6)[Gal(b1-4)GlcNAc(b1-3)Gal(b1-4)GlcNAc(b1-3)Gal(b1-4)GlcNAc(b1-3)Gal(b1-4)GlcNAc(b1-2)Man(a1-3)]Man(b1-4)GlcNAc(b1-4)[Fuc(a1-6)]GlcNAc
# How it was run: as §1
# [8] = target: Gal(b1-4)GlcNAc(b1-3)Gal(b1-4)GlcNAc(b1-3)Gal(b1-4)GlcNAc(b1-3)Gal(b1-4)GlcNAc(b1-3)Gal(b1-4)GlcNAc(b1-2)Man(a1-3)[Gal(b1-4)GlcNAc(b1-3)Gal(b1-4)GlcNAc(b1-3)Gal(b1-4)GlcNAc(b1-3)Gal(b1-4)GlcNAc(b1-3)Gal(b1-4)GlcNAc(b1-2)Man(a1-6)]Man(b1-4)GlcNAc(b1-4)GlcNAc
# How it was run: as §1
# [9] = target: Gal(b1-4)GlcNAc(b1-3)Gal(b1-4)GlcNAc(b1-3)Gal(b1-4)GlcNAc(b1-3)Gal(b1-4)GlcNAc(b1-3)Gal(b1-4)GlcNAc(b1-2)Man(a1-3)[Gal(b1-4)GlcNAc(b1-3)Gal(b1-4)GlcNAc(b1-3)Gal(b1-4)GlcNAc(b1-3)Gal(b1-4)GlcNAc(b1-3)Gal(b1-4)GlcNAc(b1-2)Man(a1-6)]Man(b1-4)GlcNAc(b1-4)[Fuc(a1-6)]GlcNAc
# How it was run: as §1
# [10] = target: Gal(b1-4)GlcNAc(b1-3)Gal(b1-4)GlcNAc(b1-3)Gal(b1-4)GlcNAc(b1-3)Gal(b1-4)GlcNAc(b1-3)Gal(b1-4)GlcNAc(b1-2)[Gal(b1-4)GlcNAc(b1-3)Gal(b1-4)GlcNAc(b1-3)Gal(b1-4)GlcNAc(b1-3)Gal(b1-4)GlcNAc(b1-3)Gal(b1-4)GlcNAc(b1-6)]Man(a1-6)[Gal(b1-4)GlcNAc(b1-3)Gal(b1-4)GlcNAc(b1-3)Gal(b1-4)GlcNAc(b1-3)Gal(b1-4)GlcNAc(b1-3)Gal(b1-4)GlcNAc(b1-2)Man(a1-3)]Man(b1-4)GlcNAc(b1-4)[Fuc(a1-6)]GlcNAc
# How it was run: as §1
# [11] = target: Gal(b1-4)GlcNAc(b1-3)Gal(b1-4)GlcNAc(b1-3)Gal(b1-4)GlcNAc(b1-3)Gal(b1-4)GlcNAc(b1-3)Gal(b1-4)GlcNAc(b1-3)Gal(b1-4)GlcNAc(b1-2)Man(a1-3)[Gal(b1-4)GlcNAc(b1-3)Gal(b1-4)GlcNAc(b1-3)Gal(b1-4)GlcNAc(b1-3)Gal(b1-4)GlcNAc(b1-3)Gal(b1-4)GlcNAc(b1-3)Gal(b1-4)GlcNAc(b1-2)Man(a1-6)]Man(b1-4)GlcNAc(b1-4)GlcNAc
# How it was run: as §1
# [12] = target: Gal(b1-4)GlcNAc(b1-3)Gal(b1-4)GlcNAc(b1-3)GalNAc
# How it was run: as §1
# [13] = target: Gal(b1-4)GlcNAc(b1-3)Gal(b1-4)GlcNAc(b1-3)[Gal(b1-4)GlcNAc(b1-3)Gal(b1-4)GlcNAc(b1-6)]GalNAc
# How it was run: as §1
# [14] = target: Gal(b1-4)GlcNAc(b1-3)Gal(b1-4)GlcNAc(b1-6)[Gal(b1-3)]GalNAc
# How it was run: as §1
# [15] = target: Gal(b1-4)GlcNAc(b1-3)Gal(b1-4)[Fuc(a1-3)]GlcNAc(b1-3)Gal(b1-4)[Fuc(a1-3)]GlcNAc
# How it was run: as §1
# [16] = target: Gal(b1-4)GlcNAc(b1-3)GalNAc
# How it was run: as §1
# [17] = target: Gal(b1-4)GlcNAc(b1-3)[Fuc(a1-3)GlcNAc(b1-6)]Gal(b1-4)Glc
# How it was run: as §1
# [18] = target: Gal(b1-4)GlcNAc(b1-3)[Gal(b1-4)GlcNAc(b1-6)]Gal(b1-4)GlcNAc
# How it was run: as §1
# [19] = target: Gal(b1-4)GlcNAc(b1-3)[GlcNAc(b1-6)]Gal(b1-4)GlcNAc
# How it was run: as §1
binder,measurement,setting,value
OS9 (Arabidopsis thaliana) (protein) MRGSHHHHHHGMASMTGGQQMGRDLYDDDDKSRLQIFPAHLVGTFSRNNREPKYKIEFLPEDSPFHPGDNLESMVMLDKHGNRFLCYLPKEEKATSGWTSSQQNISTVMMETQQLVKLKTPDELLQPLSEKCLFRQEGWWSYEFCHQKYVRQLHVEDENKIVQEFFLGTFDPEATAAFNQTVSDASTDASQRYHSHVYTNGTTCDLTGSPAEVEVRFVCAETRAMVTSITELSTCKYALTVQCPTLCKHPLFQLEKPVSHTIHCNAIPVEEDATRNKEEQAVDESPKMIADS,glycan array binding signal (z-score),[1],1.08
same,glycan array binding signal (z-score),[2],0.754
same,glycan array binding signal (z-score),[3],-0.796
same,glycan array binding signal (z-score),[4],-0.082
same,glycan array binding signal (z-score),[5],0.104
same,glycan array binding signal (z-score),[6],0.469
same,glycan array binding signal (z-score),[7],-0.076
same,glycan array binding signal (z-score),[8],-0.257
same,glycan array binding signal (z-score),[9],0.154
same,glycan array binding signal (z-score),[10],-0.061
same,glycan array binding signal (z-score),[11],0.133
same,glycan array binding signal (z-score),[12],-0.834
same,glycan array binding signal (z-score),[13],-0.14
same,glycan array binding signal (z-score),[14],-0.529
same,glycan array binding signal (z-score),[15],0.864
same,glycan array binding signal (z-score),[16],-0.295
same,glycan array binding signal (z-score),[17],0.17
same,glycan array binding signal (z-score),[18],-0.108
same,glycan array binding signal (z-score),[19],-0.352

# As a short view, part of the list above:
binder,measurement,setting,value
OS9 (Arabidopsis thaliana) (protein) MRGSHHHHHHGMASMTGGQQMGRDLYDDDDKSRLQIFPAHLVGTFSRNNREPKYKIEFLPEDSPFHPGDNLESMVMLDKHGNRFLCYLPKEEKATSGWTSSQQNISTVMMETQQLVKLKTPDELLQPLSEKCLFRQEGWWSYEFCHQKYVRQLHVEDENKIVQEFFLGTFDPEATAAFNQTVSDASTDASQRYHSHVYTNGTTCDLTGSPAEVEVRFVCAETRAMVTSITELSTCKYALTVQCPTLCKHPLFQLEKPVSHTIHCNAIPVEEDATRNKEEQAVDESPKMIADS,glycan array binding signal (z-score),[9],0.154
same,glycan array binding signal (z-score),[10],-0.061
